Values from PubChem BioAssay AID1159584 (Peter MacCallum Cancer Centre, 2016).

Assay: 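Genes that CDH1-null MCF10A cells selectively depend on to survive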 (primary screen)
System: human MCF10A breast epithelial cells, parental and CDH1-null
Reagents: siRNA against human genes
Read-out: 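Cell viability by CellTiter-Glo ATP luminescence, each line scaled to the mean of mock wells across plates, then CDH1-null over parental ratio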
Direction: CDH1-null / parental viability ratio: higher = CDH1-null cells survive relatively better than parental
In all, the deposit lists about 18,000 reagents; this is an unselected part. Not all columns of the deposit are shown. Not given: the amount of reagent, the time to read-out.

gene | CDH1-null / parental viability ratio
UXT | 1.39
MAGEB3 | 1.18
UGT1A6 | 0.92
SEC61B | 1.27
AP1S2 | 0.87
CD2BP2 | 1.13
AFG2A | 0.85
SYAP1 | 1.05
PPP4R3A | 1
LGALS12 | 1.05
PRY2 | 1.23
PLEKHA8P1 | 0.86
PLEKHG2 | 0.65
TMEM169 | 1.11
RSPH4A | 0.82
GJC2 | 1.07
DHRS7 | 0.75
TMEM258 | 1.53
PXMP4 | 0.8
ADH1A | 0.92
AGBL3 | 0.72
CCDC34 | 0.91
HOXC10 | 0.88
VWC2L | 1.22
LRRC36 | 1.1
PCDHGA8 | 1.05
GLRX5 | 1.18
UGP2 | 0.93
PI16 | 1.04
RPS6KA6 | 0.94
ZNRF1 | 0.89
SERPIND1 | 1.2
SPANXN2 | 0.8
ATF2 | 0.8
PLEKHA6 | 1.06
LTBP4 | 0.8
CPT1C | 0.89
LYZL4 | 1.34
BTBD16 | 0.92
ZKSCAN8 | 0.98
ELF2 | 1.01
MRPL9 | 0.86
GDPD4 | 0.86
YLPM1 | 1.21
KBTBD8 | 1.09
LNX1 | 0.64
H3C14 | 0.74
POGLUT2 | 0.92
XPNPEP2 | 1.02
DYDC1 | 0.82
MTX1 | 0.87
ASRGL1 | 1.03
EME1 | 1.22
ZBTB33 | 1.07
FER1L5 | 1.04
GAB4 | 1.08
HDAC2 | 1.13
NUDT21 | 0.98
WFDC8 | 0.98
COXFA4 | 0.95
DTL | 0.91
NPC1L1 | 0.63
GALNT6 | 1.09
GLIPR1L2 | 1.14
CCDC9 | 1.07
PTH2 | 0.98
ZWILCH | 1.04
UBTD2 | 0.68

Targets listed so far whose target name begins with E or e:
gene | CDH1-null / parental viability ratio
ELF2 | 1.01
EME1 | 1.22
